Drawing on PMC10646281, this text covers binding for two molecules.

Sequences of proteins named here, by UniProt entry; tags and fusion partners are left off. Residues count along the entry.
UniProt P05091, residues 18-517: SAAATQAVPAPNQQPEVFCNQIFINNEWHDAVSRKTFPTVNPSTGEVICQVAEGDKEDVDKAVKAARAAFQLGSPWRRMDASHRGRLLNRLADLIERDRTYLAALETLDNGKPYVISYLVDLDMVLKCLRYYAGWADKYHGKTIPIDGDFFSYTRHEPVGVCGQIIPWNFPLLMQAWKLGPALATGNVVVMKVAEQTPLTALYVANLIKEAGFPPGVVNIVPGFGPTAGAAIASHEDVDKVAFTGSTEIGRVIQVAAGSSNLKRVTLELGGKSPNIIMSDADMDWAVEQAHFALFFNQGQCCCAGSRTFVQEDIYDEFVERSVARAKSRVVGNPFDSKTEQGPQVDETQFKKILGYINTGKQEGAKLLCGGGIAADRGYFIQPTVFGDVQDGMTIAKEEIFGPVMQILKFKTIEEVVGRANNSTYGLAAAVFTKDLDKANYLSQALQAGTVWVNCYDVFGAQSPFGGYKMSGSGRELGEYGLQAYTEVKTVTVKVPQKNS

In test [1] the target is Aldehyde dehydrogenase 2 (ALDH2), endogenous in HUVECs (human (endogenous in HUVECs)) (UniProt P05091). Put plainly: co-IP; endogenous ALDH2 and LIN28B in HUVECs; also HUVECs treated with Ang II (more binding) or with Daidzin (less binding).
A further test deals with Flag-ALDH2 (UniProt P05091). Put plainly: co-IP; Flag-ALDH2 co-transfected with HA-LIN28B into HEK293T; cell lysates precipitated with an anti-Flag antibody, followed by western blotting.

These are yes or no findings as the source states them, for the method shown. In cells and extracts the contact can be indirect. Some binding calls cover weakened binding; strength is not graded here. For some assays here: Where a sequence is shown, tags or fusion partners need not be part of it.

B1: Lin-28 Homolog B (LIN28B), endogenous in HUVECs (protein, UniProt Q6ZN17 1-250)
chain: MAEGGASKGGGEEPGKLPEPAEEESQVLRGTGHCKWFNVRMGFGFISMINREGSPLDIPVDVFVHQSKLFMEGFRSLKEGEPVEFTFKKSSKGLESIRVTGPGGSPCLGSERRPKGKTLQKRKPKGDRCYNCGGLDHHAKECSLPPQPKKCHYCQSIMHMVANCPHKNVAQPPASSQGRQEAESQPCTSTLPREVGGGHGCTSPPFPQEARAEISERSGRSPQEASSTKSSIAPEEQSKKGPSVQKRKKT
As to B1, in test [1], the binding entry was “binds”.

B2: HA-LIN28B (protein, UniProt Q6ZN17 1-250)
chain: B1 chain
In the case of B2, the binding entry in the test with Flag-ALDH2 is given as “binds”.
